This is an account of results in the supplement of paper PMC5949888.

± gives the standard deviation of the averaged measurements. Most values lie at the floor of the assay. Slopes are relative: functional sequences can read slightly below zero.

For this data set, the system named is Saccharomyces cerevisiae PS128 hsf1 delta, HSF1(1-493) fusion. Briefly: growth estimate (transactivation domain function in HSF1 fusion, heat-shock survival) (a.u. (slope of normalised read count over time)); higher = stronger growth at 37°C, i.e. more transactivation activity. As to conditions: library: random library. The protocol: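 Random 60-nt DNA library encoding peptides of up to 20 aa, fused to the C-terminus of yeast HSF1 residues 1-493 (C-terminal TAD deleted) and expressed from the native HSF1 promoter on a CEN plasmid in hsf1-deleted S. cerevisiae PS128. Cells were selected at 37°C on -trp 5-FOA plates for 0, 2, 4, 6 and 8 days and amplicons were sequenced. Growth estimate is the slope of a robust linear fit of total-sum-normalised read counts (normalised to the first time point) over time, using at least 2 replicates. Sequences are classed functional (TAD activity) above a threshold of -0.13, set from stop-codon control sequences.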
LQDWVPGRTIRG: the growth estimate is less than -0.25. As to SFILTADRGG, the growth estimate is less than -0.25. On to GSSFTAQSRLSYVAFAIHIR, for which the growth estimate was less than -0.25. For SFRERK, the growth estimate was -0.176. In the case of RHMVYVNKSGNLSSSGDLYT it was less than -0.25; in that of GRWCMVRYGVDQCLSRCHLV, less than -0.25; in that of SGAIVNPFCAL, less than -0.25.

Regarding PAEVSFNSQAEFSPREGT, the growth estimate was less than -0.25. The value for FVKGP was less than -0.25; that for LSGMTGACVLQTR was less than -0.25. For the substance DVVHASHPSPRGSLGQRINR, the growth estimate is less than -0.25. For the substance LVHSM, the growth estimate was -0.248. Turning to AVVWSVPIAP, the growth estimate was less than -0.25.

Take LDNGNRGVIGVDRTLSHEVL: the growth estimate was less than -0.25. In the case of LLQNIEGCPCARDGSE it was less than -0.25; in that of GSDWPQGCPPGISYHSGRAT, less than -0.25; in that of SASSCRGPADALAGEGNDCF, less than -0.25. For the substance WRCASFRVNHARTSLGEFRE, the growth estimate is less than -0.25.

Take MECGADPSSC: the growth estimate was less than -0.25. For the substance VNEF, the growth estimate was less than -0.25. Take VNKDLIIRRHFRLRP: the growth estimate is less than -0.25.

As for LRLIRVRKWAR, the growth estimate was less than -0.25. With RLGEIFGGNRMLGYNTPSWN, the growth estimate is less than -0.25. Turning to TVYGRPLPDERVRSPSRRRG, the growth estimate is less than -0.25. On to WTQCG, for which the growth estimate was less than -0.25. In the case of VLSCSAPISEQQHMATC, the growth estimate is less than -0.25.

With FEDAVEASTWKVCTTCTQ, the growth estimate is less than -0.25. In the case of RSFRLSP it was less than -0.25; in that of LVDCIKSL, less than -0.25; in that of RNIRPS, less than -0.25. TFTVDAIHAQATDEYLRVTE: the growth estimate was less than -0.25.

As for KMQ, the growth estimate was less than -0.25. On to TTQNHFDRLGLTIKR, for which the growth estimate is less than -0.25. Turning to SIVPRFGYVPTVAHVVQLPD, the growth estimate is less than -0.25. As for TASSARHQQRGSAGPDESAC, the growth estimate was less than -0.25. In the case of TGIPRWEQHASGRSDRAPAC, the growth estimate was less than -0.25. For CETESVFTFCMYARTDTGSS, the growth estimate is -0.207.

Consider RCAVSRSEPLNCRGNTRAYW, for which the growth estimate is less than -0.25.

In the case of FAGCLIGGIDPRRDRRHARS, the growth estimate was less than -0.25. With RKHLKSLRCRF, the growth estimate is less than -0.25. Turning to LWRKCPCRDRLDRSVVVQDI, the growth estimate is less than -0.25. As to TPRTLVKAVRYA, the growth estimate is less than -0.25.

In the case of LSVRLRG, the growth estimate is less than -0.25. The value for WDIWGIVR was less than -0.25. In the case of PSGCSRGYQLCVMNGYEAYR, the growth estimate is less than -0.25. Turning to HGRLDPYTEDGGCYSEILVR, the growth estimate was less than -0.25. Consider RGR, for which the growth estimate is -0.248 ± 0.003. With VHLGRLRTCRGICGCRADLS, the growth estimate is less than -0.25. For PACG, the growth estimate was less than -0.25.

Consider LNKIPGSKQGS, for which the growth estimate was less than -0.25. The value for TRLDTGSPHDNRKT was less than -0.25; that for AKGDAEYCGYSVWGHFSGVL was -0.0794; that for RGPGHVAISRQWVCTAGLSG was less than -0.25. As for QVS, the growth estimate was less than -0.25.

For the substance VAPGTTYPIPSSDTLLRGDS, the growth estimate is less than -0.25. On to PAQLADPLVTLVMIYQDHPP, for which the growth estimate is less than -0.25. As to YFRFGGRNPCGIHSCSRNRS, the growth estimate was less than -0.25.

Regarding LAGYELIKYG, the growth estimate is less than -0.25. For the substance VRLKATGARPNVVQVCICGG, the growth estimate is less than -0.25. With IGTQ, the growth estimate was less than -0.25. Take GCCGLWAMWGTGLRGWG: the growth estimate was less than -0.25. In the case of VGPENYRTVSIGKADLC, the growth estimate was less than -0.25. In the case of GIKESDAFHTLDSNLIAAKC it was less than -0.25.

For the substance VSR, the growth estimate is less than -0.25.

Take VDGFLGNSTMSNGAHKGMTR: the growth estimate is less than -0.25. Take RAGMYYFTRGGPLVVAR: the growth estimate is less than -0.25. As for SIYRSPLDGTT, the growth estimate is less than -0.25. For the substance RYQQVMLTLNVLSG, the growth estimate was less than -0.25.

With TSGKSTSAFETLRLATVQGI, the growth estimate was less than -0.25. Take GKCEMNRAKPRCWLFRNDQG: the growth estimate was less than -0.25.

In the case of PVTVM, the growth estimate was less than -0.25.

Consider RVWGHSRSWCVETAG, for which the growth estimate was less than -0.25. The value for VCYRSRKA was less than -0.25; that for IQL was -0.198 ± 0.074; that for MKPRHQSAYCF was less than -0.25. In the case of LPIFRNSSLTTEVNNVCE it was less than -0.25; in that of TVTVPRV, less than -0.25.

In the case of GNLLKFISLIVAHR, the growth estimate was less than -0.25. As to GGKGYLQID, the growth estimate is less than -0.25. As for RTGVTVNRFQMEDLDLPRPE, the growth estimate was less than -0.25.

As to MRLRTRYHVPWVKQLDKVLR, the growth estimate was less than -0.25. In the case of HEQQ, the growth estimate is less than -0.25. For the substance ETSEWRIHTHFLIGRGNKHC, the growth estimate was less than -0.25.

For the substance VQGRFCAK, the growth estimate was less than -0.25. Regarding LLY, the growth estimate is less than -0.25.

For QLLSALRH, the growth estimate was less than -0.25. For the substance GKVLVTELGTLWII, the growth estimate was less than -0.25.

As for KIERSI, the growth estimate is less than -0.25. The value for HVRNLFVKSVTAAMTV was less than -0.25; that for RHGFPALAATIQVVQHRYGQ was less than -0.25; that for SARMM was less than -0.25. As to DVLWLSLPPGIL, the growth estimate was less than -0.25. The value for PVLGWLATKTC was less than -0.25. With IFFSTAIAKSKVQRSIK, the growth estimate was less than -0.25.

Regarding YDQDSFATLQIMPSYGIYPK, the growth estimate is -0.111. The value for CTGG was less than -0.25; that for SFG was less than -0.25. For the substance IPSFLG, the growth estimate was less than -0.25. As to PLEYGDLTLHA, the growth estimate is less than -0.25.

As to PSWE, the growth estimate is less than -0.25. The value for LTLVIQSKKLRTDVGLRY was less than -0.25; that for LGVSSKRRTSVTDLTLIEEL was less than -0.25. Regarding FWWLSHC, the growth estimate was less than -0.25. In the case of SSF, the growth estimate was less than -0.25.

Regarding LVGGYSPL, the growth estimate is less than -0.25.

On to IYGVRVEST, for which the growth estimate is less than -0.25. In the case of SLTLAGVAI, the growth estimate was less than -0.25. The value for GRRSKRVPQTRGLRKAAFGE was less than -0.25; that for STHSVRVRKYCPGTDGSAGK was less than -0.25. The value for SSCTQRRETGWAAAIEKRLS was less than -0.25; that for ISEFVVGPIQTGG was less than -0.25. As to HIASDGKVQRRMSNDCLRLR, the growth estimate was less than -0.25. Take NNLPEATTDLIRPRAVSLGS: the growth estimate was -0.246. As for LSITGE, the growth estimate was less than -0.25. Take KSTPGVLVEGGLTMVRAYGG: the growth estimate was less than -0.25. Take VVHCVSDLLAYCRVASCRHT: the growth estimate was less than -0.25. In the case of SGLTQTSNRF it was -0.248; in that of LSLRGKKLHGNPPCSRDRCA, less than -0.25.
